According to publication PMC5517149:
No constants are given. Whether binding was seen depends on the method and setting. Binding seen in cells or lysates may run through a third protein. A yes stands for co-enrichment or nearness to the bait. Other partners may have been found. For some assays here: Tags and fused reporters may be left off the sequences shown.

By UniProt entry, the sequences of proteins in these tests, tags left out.
UniProt Q9H6L5: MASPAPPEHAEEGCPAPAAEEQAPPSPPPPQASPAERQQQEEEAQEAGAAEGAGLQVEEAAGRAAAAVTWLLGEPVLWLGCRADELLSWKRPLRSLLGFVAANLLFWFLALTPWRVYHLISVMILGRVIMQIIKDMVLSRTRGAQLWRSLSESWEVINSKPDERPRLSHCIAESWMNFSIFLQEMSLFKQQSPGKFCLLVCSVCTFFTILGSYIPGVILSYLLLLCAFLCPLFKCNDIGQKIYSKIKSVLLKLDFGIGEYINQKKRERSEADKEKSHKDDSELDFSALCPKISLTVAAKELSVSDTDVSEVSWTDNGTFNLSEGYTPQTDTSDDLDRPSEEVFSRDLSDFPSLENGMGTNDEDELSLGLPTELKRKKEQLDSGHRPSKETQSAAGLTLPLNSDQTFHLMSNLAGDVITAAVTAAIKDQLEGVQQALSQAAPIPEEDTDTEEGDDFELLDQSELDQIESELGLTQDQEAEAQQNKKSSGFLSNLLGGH
UniProt Q9NQC3: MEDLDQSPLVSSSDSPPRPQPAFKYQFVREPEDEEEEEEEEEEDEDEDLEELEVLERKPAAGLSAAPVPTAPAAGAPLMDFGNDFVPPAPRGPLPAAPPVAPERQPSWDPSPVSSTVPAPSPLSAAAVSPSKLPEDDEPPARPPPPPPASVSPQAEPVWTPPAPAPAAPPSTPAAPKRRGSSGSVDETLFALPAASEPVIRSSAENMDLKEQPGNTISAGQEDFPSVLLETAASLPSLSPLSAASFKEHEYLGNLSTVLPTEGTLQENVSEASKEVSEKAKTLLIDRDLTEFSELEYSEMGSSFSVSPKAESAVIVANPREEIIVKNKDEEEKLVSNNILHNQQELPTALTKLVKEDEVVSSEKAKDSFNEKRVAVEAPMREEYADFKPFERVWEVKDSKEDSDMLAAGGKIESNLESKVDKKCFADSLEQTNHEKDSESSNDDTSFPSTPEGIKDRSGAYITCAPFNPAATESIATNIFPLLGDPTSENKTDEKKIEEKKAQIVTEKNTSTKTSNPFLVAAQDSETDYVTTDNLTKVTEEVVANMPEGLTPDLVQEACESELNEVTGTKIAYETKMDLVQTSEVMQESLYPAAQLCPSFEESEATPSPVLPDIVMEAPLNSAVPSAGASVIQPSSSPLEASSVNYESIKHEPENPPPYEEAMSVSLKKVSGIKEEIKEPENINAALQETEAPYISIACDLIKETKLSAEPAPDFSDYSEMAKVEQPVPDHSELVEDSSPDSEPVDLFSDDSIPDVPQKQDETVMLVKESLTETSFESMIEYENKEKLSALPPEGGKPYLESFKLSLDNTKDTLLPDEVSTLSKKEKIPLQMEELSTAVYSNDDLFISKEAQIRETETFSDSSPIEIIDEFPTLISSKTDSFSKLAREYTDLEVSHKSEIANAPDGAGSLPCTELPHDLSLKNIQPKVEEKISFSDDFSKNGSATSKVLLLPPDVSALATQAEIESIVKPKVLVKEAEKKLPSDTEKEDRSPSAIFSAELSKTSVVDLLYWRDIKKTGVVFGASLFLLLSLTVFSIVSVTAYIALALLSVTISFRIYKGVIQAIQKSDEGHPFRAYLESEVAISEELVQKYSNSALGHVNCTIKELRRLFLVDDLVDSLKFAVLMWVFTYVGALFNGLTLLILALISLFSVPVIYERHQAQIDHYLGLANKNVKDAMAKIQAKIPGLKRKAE
UniProt Q07065: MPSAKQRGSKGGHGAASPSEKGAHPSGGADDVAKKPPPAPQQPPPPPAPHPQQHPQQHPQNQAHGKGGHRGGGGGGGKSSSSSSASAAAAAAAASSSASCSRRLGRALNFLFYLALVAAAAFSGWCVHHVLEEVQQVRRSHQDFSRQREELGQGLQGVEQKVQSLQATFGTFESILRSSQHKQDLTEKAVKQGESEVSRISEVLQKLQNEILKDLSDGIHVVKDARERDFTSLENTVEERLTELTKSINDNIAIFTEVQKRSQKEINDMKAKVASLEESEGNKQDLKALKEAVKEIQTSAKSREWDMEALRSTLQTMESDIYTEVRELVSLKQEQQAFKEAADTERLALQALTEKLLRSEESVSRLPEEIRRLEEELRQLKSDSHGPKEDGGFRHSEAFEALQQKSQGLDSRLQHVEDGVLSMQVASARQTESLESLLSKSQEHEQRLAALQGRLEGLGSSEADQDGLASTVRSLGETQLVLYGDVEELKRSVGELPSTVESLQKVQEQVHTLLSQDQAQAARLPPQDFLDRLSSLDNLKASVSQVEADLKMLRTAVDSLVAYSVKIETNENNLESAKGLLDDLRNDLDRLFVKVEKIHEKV
UniProt P60520: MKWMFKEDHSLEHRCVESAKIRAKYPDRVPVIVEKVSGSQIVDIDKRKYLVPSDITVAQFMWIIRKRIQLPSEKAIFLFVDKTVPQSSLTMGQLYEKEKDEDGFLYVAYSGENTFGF
UniProt Q14145: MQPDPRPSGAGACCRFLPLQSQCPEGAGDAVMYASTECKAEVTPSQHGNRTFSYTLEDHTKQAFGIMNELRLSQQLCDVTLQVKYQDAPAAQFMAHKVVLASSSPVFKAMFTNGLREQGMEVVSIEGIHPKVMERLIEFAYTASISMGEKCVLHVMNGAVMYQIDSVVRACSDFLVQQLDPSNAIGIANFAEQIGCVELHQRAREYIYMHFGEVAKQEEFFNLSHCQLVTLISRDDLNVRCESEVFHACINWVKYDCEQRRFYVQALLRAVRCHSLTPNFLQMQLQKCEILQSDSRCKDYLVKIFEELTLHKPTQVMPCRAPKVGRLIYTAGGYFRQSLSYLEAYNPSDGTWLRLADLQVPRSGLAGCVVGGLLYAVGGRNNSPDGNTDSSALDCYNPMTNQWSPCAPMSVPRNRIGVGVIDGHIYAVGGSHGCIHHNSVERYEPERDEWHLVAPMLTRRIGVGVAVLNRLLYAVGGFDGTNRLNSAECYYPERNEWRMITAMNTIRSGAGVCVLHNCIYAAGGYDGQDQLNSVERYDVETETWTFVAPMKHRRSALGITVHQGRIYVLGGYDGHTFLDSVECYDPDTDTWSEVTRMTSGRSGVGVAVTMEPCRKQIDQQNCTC

T1: FLAG-HA-RTN2L (human) (UniProt O75298)
T1 sequence: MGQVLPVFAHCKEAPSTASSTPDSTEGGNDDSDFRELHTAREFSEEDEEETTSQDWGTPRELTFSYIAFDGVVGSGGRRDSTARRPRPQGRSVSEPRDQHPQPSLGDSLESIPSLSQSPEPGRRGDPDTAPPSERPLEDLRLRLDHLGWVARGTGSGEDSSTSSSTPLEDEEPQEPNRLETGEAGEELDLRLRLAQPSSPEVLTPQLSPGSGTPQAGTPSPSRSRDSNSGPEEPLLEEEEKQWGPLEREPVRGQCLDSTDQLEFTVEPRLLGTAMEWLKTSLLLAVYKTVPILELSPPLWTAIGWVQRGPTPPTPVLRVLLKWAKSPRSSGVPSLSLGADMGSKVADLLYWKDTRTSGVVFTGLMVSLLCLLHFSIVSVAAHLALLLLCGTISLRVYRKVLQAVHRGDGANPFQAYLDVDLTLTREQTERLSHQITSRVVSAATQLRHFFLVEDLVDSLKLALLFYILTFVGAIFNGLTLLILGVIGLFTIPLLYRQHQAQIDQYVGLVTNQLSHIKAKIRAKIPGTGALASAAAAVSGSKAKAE


Columns and labels:
Assay in all cases: affinity purification with mass spectrometry; SILAC; anti-HA-agarose IP from lysates of U2OS TRex cells expressing the FLAG-HA bait (doxycycline 24 hr, bafilomycin A1) against mock cells; 50 mM Tris/HCl pH 7.5, 120 mM NaCl, 1% NP40; LC-MS/MS
FLAG-HA-RTN2L (human) = target: T1, FLAG-HA-RTN2L (human)
FLAG-HA-FAM134B (human) = FLAG-HA-FAM134B (human) (UniProt Q9H6L5)
FLAG-HA-RTN4L (human) = FLAG-HA-RTN4L (human) (UniProt Q9NQC3)

binding (FLAG-HA-RTN2L (human))	binding (FLAG-HA-FAM134B (human))	Molecule	other results
–	binds	CLIMP-63 (from UniProt Q07065 1-602)	–
–	binds	GABARAP-L2 (endogenous) (from UniProt P60520 1-117)	–
binds	–	SQSTM1 (from UniProt Q13501 1-440)	–

Continued, molecule first:

Molecule	binding (FLAG-HA-RTN2L (human))	binding (FLAG-HA-FAM134B (human))	other results
KEAP1 (from UniProt Q14145 1-624)	binds	–	–
RNF41 (protein, UniProt Q9H4P4 1-317) MGYDVTRFQGDVDEDLICPICSGVLEEPVQAPHCEHAFCNACITQWFSQQQTCPVDRSVVTVAHLRPVPRIMRNMLSKLQIACDNAVFGCSAVVRLDNLMSHLSDCEHNPKRPVTCEQGCGLEMPKDELPNHNCIKHLRSVVQQQQTRIAELEKTSAEHKHQLAEQKRDIQLLKAYMRAIRSVNPNLQNLEETIEYNEILEWVNSLQPARVTRWGGMISTPDAVLQAVIKRSLVESGCPASIVNELIENAHERSWPQGLATLETRQMNRRYYENYVAKRIPGKQAVVVMACENQHMGDDMVQEPGLVMIFAHGVEEI	–	–	binding (FLAG-HA-RTN4L (human)): binds
